# Reference: the supplement of paper PMC10849652
# By UniProt entry, the sequences of proteins in these tests, tags left out. Where a name states a change or a piece, a line headed by the entry shows the natural chain unless it says otherwise.
# UniProt A2VDF0: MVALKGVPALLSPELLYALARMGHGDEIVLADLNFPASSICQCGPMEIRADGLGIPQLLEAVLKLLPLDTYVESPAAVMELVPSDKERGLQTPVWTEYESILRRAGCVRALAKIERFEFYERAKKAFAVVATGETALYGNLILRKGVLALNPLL
# UniProt Q9UP38, whole entry, looked up: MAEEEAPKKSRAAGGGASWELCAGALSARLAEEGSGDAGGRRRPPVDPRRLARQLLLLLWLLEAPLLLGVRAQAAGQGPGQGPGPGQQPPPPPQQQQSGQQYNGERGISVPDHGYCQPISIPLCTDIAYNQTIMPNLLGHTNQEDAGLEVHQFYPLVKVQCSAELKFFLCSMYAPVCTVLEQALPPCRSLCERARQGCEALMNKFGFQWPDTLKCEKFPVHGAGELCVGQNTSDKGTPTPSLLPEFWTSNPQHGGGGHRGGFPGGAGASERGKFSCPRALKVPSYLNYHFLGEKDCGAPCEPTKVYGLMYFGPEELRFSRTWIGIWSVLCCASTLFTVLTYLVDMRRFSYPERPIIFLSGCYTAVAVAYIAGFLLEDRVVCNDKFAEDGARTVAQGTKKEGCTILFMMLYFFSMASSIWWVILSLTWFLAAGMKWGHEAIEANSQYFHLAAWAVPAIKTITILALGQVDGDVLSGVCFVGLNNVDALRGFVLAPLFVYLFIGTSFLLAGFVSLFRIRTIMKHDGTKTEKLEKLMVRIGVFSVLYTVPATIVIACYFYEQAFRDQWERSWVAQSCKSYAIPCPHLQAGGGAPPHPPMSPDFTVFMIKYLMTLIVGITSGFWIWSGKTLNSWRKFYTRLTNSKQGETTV
# UniProt P19526, whole entry, looked up: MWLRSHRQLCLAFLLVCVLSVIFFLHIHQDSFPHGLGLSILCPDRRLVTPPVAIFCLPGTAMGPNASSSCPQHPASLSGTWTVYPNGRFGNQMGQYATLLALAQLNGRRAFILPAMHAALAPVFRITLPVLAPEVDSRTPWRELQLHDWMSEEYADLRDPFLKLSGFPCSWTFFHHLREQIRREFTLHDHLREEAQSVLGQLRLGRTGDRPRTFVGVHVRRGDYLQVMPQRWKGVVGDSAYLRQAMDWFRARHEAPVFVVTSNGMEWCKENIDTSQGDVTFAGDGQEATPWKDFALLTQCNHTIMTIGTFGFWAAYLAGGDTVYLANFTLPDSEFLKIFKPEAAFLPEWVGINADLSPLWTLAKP
# UniProt Q68DX3: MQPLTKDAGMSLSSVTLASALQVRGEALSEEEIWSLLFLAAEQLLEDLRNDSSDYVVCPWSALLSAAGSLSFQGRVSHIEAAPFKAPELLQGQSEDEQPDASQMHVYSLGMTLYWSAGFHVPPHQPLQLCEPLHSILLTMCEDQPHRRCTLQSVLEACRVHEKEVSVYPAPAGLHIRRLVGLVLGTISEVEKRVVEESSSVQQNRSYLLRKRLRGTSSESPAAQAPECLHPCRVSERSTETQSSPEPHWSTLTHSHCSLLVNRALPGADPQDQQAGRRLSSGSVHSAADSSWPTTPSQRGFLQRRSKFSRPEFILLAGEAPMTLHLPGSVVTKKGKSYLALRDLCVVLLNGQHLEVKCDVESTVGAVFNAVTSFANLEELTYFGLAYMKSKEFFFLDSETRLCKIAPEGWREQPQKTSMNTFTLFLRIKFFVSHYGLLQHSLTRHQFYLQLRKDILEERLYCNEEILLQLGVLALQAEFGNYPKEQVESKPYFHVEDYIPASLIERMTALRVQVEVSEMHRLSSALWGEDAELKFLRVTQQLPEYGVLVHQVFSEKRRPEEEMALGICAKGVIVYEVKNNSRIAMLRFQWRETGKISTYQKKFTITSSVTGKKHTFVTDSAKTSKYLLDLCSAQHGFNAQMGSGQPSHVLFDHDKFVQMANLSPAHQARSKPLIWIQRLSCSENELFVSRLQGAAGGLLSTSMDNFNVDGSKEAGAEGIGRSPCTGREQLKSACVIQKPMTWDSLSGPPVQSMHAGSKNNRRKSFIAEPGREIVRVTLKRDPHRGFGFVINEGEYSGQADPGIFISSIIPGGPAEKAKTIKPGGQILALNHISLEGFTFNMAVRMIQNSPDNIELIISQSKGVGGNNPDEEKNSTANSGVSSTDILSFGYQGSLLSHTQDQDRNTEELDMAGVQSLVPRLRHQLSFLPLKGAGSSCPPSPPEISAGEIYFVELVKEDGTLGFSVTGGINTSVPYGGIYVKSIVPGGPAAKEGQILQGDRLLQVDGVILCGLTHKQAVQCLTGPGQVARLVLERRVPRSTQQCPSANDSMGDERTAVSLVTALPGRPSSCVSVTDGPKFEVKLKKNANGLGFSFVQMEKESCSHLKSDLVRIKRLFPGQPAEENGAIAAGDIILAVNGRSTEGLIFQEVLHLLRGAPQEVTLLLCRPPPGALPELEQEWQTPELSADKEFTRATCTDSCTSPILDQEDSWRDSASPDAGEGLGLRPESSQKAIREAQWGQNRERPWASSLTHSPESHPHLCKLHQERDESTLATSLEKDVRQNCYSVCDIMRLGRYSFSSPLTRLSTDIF
# UniProt O43716: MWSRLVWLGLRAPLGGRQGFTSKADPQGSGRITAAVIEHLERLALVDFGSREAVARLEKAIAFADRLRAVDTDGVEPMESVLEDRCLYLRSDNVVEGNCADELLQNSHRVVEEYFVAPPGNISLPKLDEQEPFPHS
# UniProt P98177: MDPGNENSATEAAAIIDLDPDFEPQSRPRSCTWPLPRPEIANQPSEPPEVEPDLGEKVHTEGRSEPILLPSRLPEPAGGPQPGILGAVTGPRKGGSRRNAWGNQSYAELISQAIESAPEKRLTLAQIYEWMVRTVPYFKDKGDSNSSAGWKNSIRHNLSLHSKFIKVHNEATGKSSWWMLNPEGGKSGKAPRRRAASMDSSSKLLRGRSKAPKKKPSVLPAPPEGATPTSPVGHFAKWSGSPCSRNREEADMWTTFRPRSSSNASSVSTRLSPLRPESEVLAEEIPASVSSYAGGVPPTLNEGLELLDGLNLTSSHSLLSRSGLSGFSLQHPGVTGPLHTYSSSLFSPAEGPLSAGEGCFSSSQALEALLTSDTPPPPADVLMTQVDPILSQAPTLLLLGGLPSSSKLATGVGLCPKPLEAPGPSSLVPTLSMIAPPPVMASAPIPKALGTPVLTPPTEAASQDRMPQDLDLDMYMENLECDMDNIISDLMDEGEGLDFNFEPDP
# UniProt O94915: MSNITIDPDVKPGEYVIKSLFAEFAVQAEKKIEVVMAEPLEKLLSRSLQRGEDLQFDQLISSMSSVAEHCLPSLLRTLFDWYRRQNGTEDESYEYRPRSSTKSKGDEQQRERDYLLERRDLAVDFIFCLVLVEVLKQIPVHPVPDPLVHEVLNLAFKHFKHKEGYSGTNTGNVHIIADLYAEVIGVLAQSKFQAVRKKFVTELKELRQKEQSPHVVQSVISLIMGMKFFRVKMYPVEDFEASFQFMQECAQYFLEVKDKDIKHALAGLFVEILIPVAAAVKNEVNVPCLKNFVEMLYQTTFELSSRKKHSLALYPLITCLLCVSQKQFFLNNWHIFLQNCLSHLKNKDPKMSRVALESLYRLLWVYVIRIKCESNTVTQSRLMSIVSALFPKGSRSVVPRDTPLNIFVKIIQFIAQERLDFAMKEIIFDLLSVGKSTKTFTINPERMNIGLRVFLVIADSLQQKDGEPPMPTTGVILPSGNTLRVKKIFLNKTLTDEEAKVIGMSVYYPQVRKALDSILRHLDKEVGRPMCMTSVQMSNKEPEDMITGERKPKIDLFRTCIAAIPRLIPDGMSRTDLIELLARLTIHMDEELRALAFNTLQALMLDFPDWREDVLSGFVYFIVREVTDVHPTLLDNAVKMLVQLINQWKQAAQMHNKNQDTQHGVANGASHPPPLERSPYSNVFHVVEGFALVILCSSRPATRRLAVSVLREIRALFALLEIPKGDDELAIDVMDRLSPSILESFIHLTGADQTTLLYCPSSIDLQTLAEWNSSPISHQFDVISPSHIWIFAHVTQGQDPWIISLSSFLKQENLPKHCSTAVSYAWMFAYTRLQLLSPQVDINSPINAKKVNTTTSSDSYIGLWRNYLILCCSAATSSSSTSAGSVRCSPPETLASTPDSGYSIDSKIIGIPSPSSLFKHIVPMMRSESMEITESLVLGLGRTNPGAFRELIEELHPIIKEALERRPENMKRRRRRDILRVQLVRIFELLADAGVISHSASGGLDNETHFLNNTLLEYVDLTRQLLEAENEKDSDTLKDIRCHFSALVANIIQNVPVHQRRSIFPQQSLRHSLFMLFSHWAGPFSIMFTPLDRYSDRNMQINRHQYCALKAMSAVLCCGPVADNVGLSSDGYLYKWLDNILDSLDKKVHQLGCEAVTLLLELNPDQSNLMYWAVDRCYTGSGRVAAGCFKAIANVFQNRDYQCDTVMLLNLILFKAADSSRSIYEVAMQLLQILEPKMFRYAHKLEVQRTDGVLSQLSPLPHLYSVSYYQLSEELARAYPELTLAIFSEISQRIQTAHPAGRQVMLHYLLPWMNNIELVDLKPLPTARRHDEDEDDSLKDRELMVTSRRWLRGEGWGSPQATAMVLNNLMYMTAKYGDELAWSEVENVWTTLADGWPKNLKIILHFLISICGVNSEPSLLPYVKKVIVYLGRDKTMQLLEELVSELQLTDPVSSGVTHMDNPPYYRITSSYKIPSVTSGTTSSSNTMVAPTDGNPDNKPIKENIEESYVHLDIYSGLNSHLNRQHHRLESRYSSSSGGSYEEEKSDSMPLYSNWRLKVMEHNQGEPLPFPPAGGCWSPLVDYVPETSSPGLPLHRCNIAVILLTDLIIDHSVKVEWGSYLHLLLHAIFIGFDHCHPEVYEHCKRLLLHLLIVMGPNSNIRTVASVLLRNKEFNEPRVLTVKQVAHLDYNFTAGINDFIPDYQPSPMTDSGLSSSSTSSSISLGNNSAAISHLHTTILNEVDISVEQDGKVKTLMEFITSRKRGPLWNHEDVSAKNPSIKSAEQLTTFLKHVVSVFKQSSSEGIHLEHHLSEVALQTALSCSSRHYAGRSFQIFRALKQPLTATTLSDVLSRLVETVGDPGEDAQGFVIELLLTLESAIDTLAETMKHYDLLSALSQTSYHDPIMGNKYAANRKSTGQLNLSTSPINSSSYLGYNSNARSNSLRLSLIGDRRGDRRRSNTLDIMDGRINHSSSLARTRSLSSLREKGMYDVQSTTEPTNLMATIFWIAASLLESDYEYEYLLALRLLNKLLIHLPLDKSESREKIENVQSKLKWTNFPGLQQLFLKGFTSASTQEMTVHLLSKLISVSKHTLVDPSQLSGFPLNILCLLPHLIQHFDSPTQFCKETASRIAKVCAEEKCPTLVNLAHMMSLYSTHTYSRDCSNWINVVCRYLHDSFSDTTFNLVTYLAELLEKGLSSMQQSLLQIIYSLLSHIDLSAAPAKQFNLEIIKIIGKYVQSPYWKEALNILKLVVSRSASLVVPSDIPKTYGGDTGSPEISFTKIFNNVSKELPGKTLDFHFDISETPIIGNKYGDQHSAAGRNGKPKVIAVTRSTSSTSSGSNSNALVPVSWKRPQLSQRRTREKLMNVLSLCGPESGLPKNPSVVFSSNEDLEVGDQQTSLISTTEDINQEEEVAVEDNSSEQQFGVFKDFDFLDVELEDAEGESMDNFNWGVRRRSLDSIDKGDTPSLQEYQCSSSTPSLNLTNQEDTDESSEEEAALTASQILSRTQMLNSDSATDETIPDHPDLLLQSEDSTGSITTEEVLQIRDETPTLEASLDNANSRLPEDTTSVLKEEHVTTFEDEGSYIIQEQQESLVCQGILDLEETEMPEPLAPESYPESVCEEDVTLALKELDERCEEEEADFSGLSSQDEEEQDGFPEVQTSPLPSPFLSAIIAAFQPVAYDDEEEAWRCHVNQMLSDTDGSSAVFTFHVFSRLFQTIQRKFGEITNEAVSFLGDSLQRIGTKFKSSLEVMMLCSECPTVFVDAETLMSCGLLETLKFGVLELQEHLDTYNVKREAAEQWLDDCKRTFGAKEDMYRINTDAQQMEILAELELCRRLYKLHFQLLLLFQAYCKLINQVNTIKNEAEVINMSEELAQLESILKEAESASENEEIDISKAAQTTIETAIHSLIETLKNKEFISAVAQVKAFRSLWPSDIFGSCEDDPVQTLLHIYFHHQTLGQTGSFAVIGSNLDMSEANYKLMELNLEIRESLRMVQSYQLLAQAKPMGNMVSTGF
# UniProt P24522: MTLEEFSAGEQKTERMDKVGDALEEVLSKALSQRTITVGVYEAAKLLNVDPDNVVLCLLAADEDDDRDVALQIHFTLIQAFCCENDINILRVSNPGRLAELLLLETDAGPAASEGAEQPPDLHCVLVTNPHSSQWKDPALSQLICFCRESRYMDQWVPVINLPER
# UniProt P28676: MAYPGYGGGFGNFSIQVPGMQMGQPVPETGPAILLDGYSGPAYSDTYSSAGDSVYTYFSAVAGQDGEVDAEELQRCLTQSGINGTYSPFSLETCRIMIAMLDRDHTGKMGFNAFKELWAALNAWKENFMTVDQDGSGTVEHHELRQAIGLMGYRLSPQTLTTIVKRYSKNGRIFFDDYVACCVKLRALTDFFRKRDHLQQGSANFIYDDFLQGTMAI
# The other results are listed elsewhere or left out.
# Assays:
# Assay in all cases: log2 fold change, soluble protein after heating vs DMSO (PISA); higher = thermal stabilisation; K562 lysate, 10 uM; active = over 0.2 and 3.5 SD of the protein, either way, in both replicates (recomputed)
# [1] = compound: CC1=C2C(=CC=C1)N=C(N(C2=O)C3=CC=CC=C3C)CN4C=NC5=C(N=CN=C54)N
# Outline: (§1)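 Dounce homogenisation of K562 pellets in PBS pH 7.4 with 1 mM MgCl2 produced a crude extract, used at 1 mg/mL protein. Exposure to 10 μM compound lasted 30 min, and aliquots were then heated for 3 min across 48°C-58°C, pooled and brought to 0.5% NP-40 at 4°C. The supernatant after 21,000xg for 90 min was quantified by TMTpro 16plex LC-MS/MS with channel sums equalised. Duplicate values are given as log-two fold change in thermal stability relative to solvent controls.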
# [2] = compound: Cc1sc2c(c1C)C(c1ccc(Cl)cc1)=N[C@@H](CC(=O)OC(C)(C)C)c1nnc(C)n1-2
# Outline: as §1
# [3] = compound: c1ccc([C@@H]2C[C@H]2NC2CCNCC2)cc1
# Outline: as §1
# [4] = compound: C1=CC=C(C=C1)[C@H](COC2=CC3=C(C=C2)NC(=O)N3)NC(=O)C4=CC=CN(C4=O)CC5=CC(=C(C=C5)F)F
# Outline: as §1
# [5] = compound: CC1=C(SC2=C1C(=N[C@H](C3=NN=C(N32)C)CC(=O)N)C4=CC=C(C=C4)Cl)C
# Outline: as §1
target,measurement,setting,value
GDPD5 (UniProt Q8WTR4),log2 fold change,[1],inactive: -0.069
FSIP2 (UniProt Q5CZC0),log2 fold change,[2],inactive: -0.16
same,log2 fold change,[3],inactive: -0.224
FUOM (UniProt A2VDF0),log2 fold change,[1],inactive: -0.097
same,log2 fold change,[2],inactive: 0.027
same,log2 fold change,[3],inactive: -0.071
"FOXO3B, A0A2Z4LIS9",log2 fold change,[1],inactive: 0.026
same,log2 fold change,[2],inactive: 0.058
FZR1 isoform 2 (UniProt Q9UM11),log2 fold change,[4],inactive: -0.244
same,log2 fold change,[5],inactive: 0.126
same,log2 fold change,[3],inactive: 0.039
GDF15 (UniProt Q99988),log2 fold change,[1],inactive: 0.122
same,log2 fold change,[2],inactive: 0.07
same,log2 fold change,[3],inactive: -0.162
GEN1 (UniProt Q17RS7),log2 fold change,[1],inactive: 0.037
same,log2 fold change,[2],inactive: 0.06
GEMIN7 (UniProt Q9H840),log2 fold change,[4],inactive: 0.002
same,log2 fold change,[5],inactive: -0.087
same,log2 fold change,[3],inactive: -0.169
FZD1 (UniProt Q9UP38),log2 fold change,[3],inactive: 0.037
FUT1 (UniProt P19526),log2 fold change,[3],inactive: 0.133
FRMPD2 (UniProt Q68DX3),log2 fold change,[1],inactive: -0.057
same,log2 fold change,[3],inactive: 0.473
GANC (UniProt Q8TET4),log2 fold change,[2],inactive: 0.109
GAB3 isoform 2 (UniProt Q8WWW8),log2 fold change,[2],inactive: 0.277
FUS (UniProt H3BPE7),log2 fold change,[2],inactive: 0.3
GATC (UniProt O43716),log2 fold change,[1],inactive: -0.004
same,log2 fold change,[2],inactive: 0.024
same,log2 fold change,[3],inactive: 0.112
GC isoform 3 (UniProt P02774),log2 fold change,[1],inactive: 0.007
same,log2 fold change,[2],inactive: -0.138
same,log2 fold change,[3],inactive: 0.107
GBA2 (UniProt Q9HCG7),log2 fold change,[4],inactive: 0.046
same,log2 fold change,[5],inactive: 0.062
same,log2 fold change,[2],inactive: -0.094
same,log2 fold change,[3],inactive: -0.057
FUNDC1 (UniProt Q8IVP5),log2 fold change,[1],inactive: 0.046
same,log2 fold change,[2],inactive: -0.133
same,log2 fold change,[3],inactive: -0.408
FRAT1 (UniProt Q92837),log2 fold change,[1],inactive: -0.011
same,log2 fold change,[2],inactive: -0.194
FOXO4 (UniProt P98177),log2 fold change,[4],inactive: -0.029
same,log2 fold change,[5],inactive: -0.131
same,log2 fold change,[3],inactive: -0.139
GART (UniProt C9JZG2),log2 fold change,[4],inactive: -0.131
same,log2 fold change,[5],inactive: 0.086
same,log2 fold change,[3],inactive: -0.366
FUT11 (UniProt Q495W5),log2 fold change,[4],inactive: 0.122
same,log2 fold change,[5],inactive: -0.053
same,log2 fold change,[3],inactive: -0.033
FTSJ1 isoform 2 (UniProt Q9UET6),log2 fold change,[1],inactive: -0.089
same,log2 fold change,[3],inactive: -0.234
FRYL isoform 2 (UniProt O94915),log2 fold change,[3],inactive: 0.071
GABPB2 (UniProt Q8TAK5),log2 fold change,[4],inactive: 0.068
same,log2 fold change,[5],inactive: -0.014
same,log2 fold change,[2],inactive: -0.1
same,log2 fold change,[3],inactive: 0.126
GALNT11 (UniProt Q8NCW6),log2 fold change,[1],inactive: 0.248
same,log2 fold change,[2],inactive: 0.085
same,log2 fold change,[3],inactive: -0.112
GADD45A (UniProt P24522),log2 fold change,[3],inactive: -0.16
GBP2 (UniProt P32456),log2 fold change,[2],inactive: -0.102
same,log2 fold change,[3],inactive: -0.103
GALNT7 (UniProt H0YAH3),log2 fold change,[1],inactive: 0.203
same,log2 fold change,[3],inactive: 0.114
GAS6 isoform 1 (UniProt Q14393),log2 fold change,[4],inactive: 0.1
same,log2 fold change,[5],inactive: -0.078
same,log2 fold change,[3],inactive: -0.291
GATB (UniProt O75879),log2 fold change,[1],inactive: 0.085
same,log2 fold change,[2],inactive: 0.303
same,log2 fold change,[3],inactive: -0.033
GCA (UniProt P28676),log2 fold change,[3],inactive: -0.095
FSCN2 isoform 2 (UniProt O14926),log2 fold change,[1],inactive: -0.045
G3BP2 isoform 2 (UniProt Q9UN86),log2 fold change,[2],inactive: -0.248
same,log2 fold change,[3],inactive: 0.014
FRAS1 isoform 2 (UniProt Q86XX4),log2 fold change,[1],inactive: -0.04
same,log2 fold change,[2],inactive: -0.021
FUT4 (UniProt P22083),log2 fold change,[2],inactive: -0.019
same,log2 fold change,[3],inactive: -0.104
FPGS (UniProt Q05932),log2 fold change,[2],inactive: -0.227
GFI1B (UniProt Q5VTD9),log2 fold change,[2],inactive: -0.167
GATA1 (UniProt P15976),log2 fold change,[4],inactive: -0.064
same,log2 fold change,[5],inactive: -0.037
same,log2 fold change,[2],inactive: 0.015
same,log2 fold change,[3],inactive: -0.115
FOXRED2 (UniProt Q8IWF2),log2 fold change,[1],inactive: -0.08
same,log2 fold change,[2],inactive: 0.019

# In a second layout: entries from further up
target	measurement	setting	value
FUOM (UniProt A2VDF0)	log2 fold change	[3]	inactive: -0.071
GEMIN7 (UniProt Q9H840)	log2 fold change	[4]	inactive: 0.002
GATA1 (UniProt P15976)	log2 fold change	[5]	inactive: -0.037
